The subject of the assay is L1210 leukemia ip in BDF1 mice, survival T/C. In words: NCI In Vivo Anticancer Drug Screen. Data for tumor model L1210 Leukemia (intraperitoneal) in B6D2F1 (BDF1) mice. The settings on record: T/C endpoint: mean survival time, higher T/C = longer survival.
[1] abbreviates: dose: 40.0 mg/kg/injection, schedule: Q01DX001 (ip), vehicle: saline.
The mark [2] stands for this setting: dose: 200.0 mg/kg/injection, schedule: Q01DX009 (ip), vehicle: saline with Tween-80.
Where [3] appears, read: dose: 400.0 mg/kg/injection, schedule: Q04DX003 (ip), vehicle: saline with Tween-80.
Setting [4] is: dose: 400.0 mg/kg/injection, schedule: Q01DX001 (ip), vehicle: saline.
Where [5] appears, read: dose: 400.0 mg/kg/injection, schedule: Q01DX001 (ip), vehicle: carboxymethylcellulose (CMC).
[6] abbreviates: dose: 200.0 mg/kg/injection, schedule: Q04DX003 (ip), vehicle: saline with Tween-80.
The mark [7] stands for this setting: dose: 200.0 mg/kg/injection, schedule: Q04DX003 (ip), vehicle: saline.
Where [8] appears, read: dose: 400.0 mg/kg/injection, schedule: Q04DX003 (ip), vehicle: saline.
[9] abbreviates: dose: 100.0 mg/kg/injection, schedule: Q01DX005 (ip), vehicle: saline.

The list does not hold the whole screen: it gathers tests that were run many times, whatever their T/C, doses with no T/C, and many T/C values between a quarter and a half above the control. Further doses and runs are listed elsewhere. T/C is the treated group as % of the vehicle group. Some doses have a count of surviving animals in place of a T/C: the source holds a T/C of zero for them, seemingly a mark for toxic or unscored doses. Some doses without a T/C left all or most animals alive at the check, yet need not have been tolerated: survival well below the control is almost never listed, so the zero probably covers shortened survival too. Survivors were counted at the toxicity check, usually on the fifth day, unless a day is given; later deaths do not show. Schedules are NCI's codes, read here as Q, the interval in days (D) or hours (H), X, the number of doses. Some schedules carry Z or #; the key to these is not given. For survival time, this PubChem deposit counts one and a half times the control or more as active, and values a quarter to a half above the control carry no call in these data; other NCI protocols may use other cut-offs.

As to `O=C(O)CCc1c[nH]c2ccc(N(CCCl)CCCl)cc12`, the T/C is, setting by setting: (dose: 0.93 mg/kg/injection, schedule: Q01DX001 (ip), vehicle: carboxymethylcellulose (CMC)) 130 % of control; (dose: 3.0 mg/kg/injection, schedule: Q01DX Z (ip), vehicle: carboxymethylcellulose (CMC)) 133 % of control; (dose: 3.75 mg/kg/injection, schedule: Q01DX001 (ip), vehicle: carboxymethylcellulose (CMC)) 143 % of control; (dose: 5.0 mg/kg/injection, schedule: Q01DX001 (ip), vehicle: saline) 146 % of control; (dose: 6.0 mg/kg/injection, schedule: Q01DX Z (ip), vehicle: carboxymethylcellulose (CMC)) 146 % of control; (dose: 7.5 mg/kg/injection, schedule: Q01DX001 (oral), vehicle: carboxymethylcellulose (CMC)) 144 % of control. In addition, the T/C runs as follows: (dose: 10.0 mg/kg/injection, schedule: Q01DX001 (ip), vehicle: saline) 148 % of control; (dose: 20.0 mg/kg/injection, schedule: Q01DX001 (ip), vehicle: saline) 148 % of control; (dose: 20.0 mg/kg/injection, schedule: Q01DX001 (oral), vehicle: saline) 142 % of control. The survivor count was 3 of 6 (dose: 12.0 mg/kg/injection, schedule: Q01DX Z (ip), vehicle: carboxymethylcellulose (CMC)); 6 of 6 (dose: 30.0 mg/kg/injection, schedule: Q01DX001 (oral), vehicle: carboxymethylcellulose (CMC)); 2 of 6 under setting [1]; 5 of 6 (dose: 40.0 mg/kg/injection, schedule: Q01DX001 (oral), vehicle: saline); 3 of 6 (dose: 80.0 mg/kg/injection, schedule: Q01DX001 (ip), vehicle: saline); 5 of 6 (dose: 80.0 mg/kg/injection, schedule: Q01DX001 (oral), vehicle: saline). The survivor count is 2 of 6 (dose: 160.0 mg/kg/injection, schedule: Q01DX001 (oral), vehicle: saline) and 1 of 6 (dose: 320.0 mg/kg/injection, schedule: Q01DX001 (oral), vehicle: saline).

Consider `COc1ccc(OC)c(/C=C/c2cc3ccccc3c[n+]2C)c1`, for which the survivor count (dose: 50.0 mg/kg/injection, schedule: Q01DX009 (ip), vehicle: saline with Tween-80) is 0 of 3; the survivor count (dose: 100.0 mg/kg/injection, schedule: Q01DX009 (ip), vehicle: saline with Tween-80) is reported as 0 of 3; the survivor count under setting [2] is 0 of 3.

Regarding `C=C1C(=O)O[C@@H]2C[C@@H](C)[C@@H]3CC(=O)OC[C@@]3(C)C[C@H]12`, the survivor count under setting [3] is 0 of 6.

As to `CCCCC#CC(=O)OCCC`, the survivor count under setting [3] is 6 of 6.

Turning to `N=C(N)SC1c2ccccc2-c2cc([N+](=O)[O-])ccc21` (stereo not given), the survivor count by setting is: (dose: 400.0 mg/kg/injection, schedule: Q01DX005 (ip), vehicle: Klucel (hydroxypropylcellulose) (HPC)) 3 of 3; (dose: 400.0 mg/kg/injection, schedule: Q04DX002 (ip), vehicle: Klucel (hydroxypropylcellulose) (HPC)) 0 of 3.

`Cn1c(=O)c2[nH]c(C3CC3)nc2n(C)c1=O`: the survivor count under setting [4] is recorded as 0 of 4.

`COC1OCC(COC(=O)c2ccc([N+](=O)[O-])cc2)C1OC(=O)c1ccc([N+](=O)[O-])cc1` (stereo not given): the survivor count under setting [5] was 4 of 4.

For the compound `OC(CC(CC(O)(C(F)(F)F)C(F)(F)F)=NNc1ccccc1)(C(F)(F)F)C(F)(F)F`, the survivor count reads like this: under setting [6], 0 of 6; under setting [3], 0 of 6.

`CCCCCCCC(C(=O)O)C(CCCCCCC)C(=O)O` (stereo not given): the survivor count was 6 of 6 (dose: 25.0 mg/kg/injection, schedule: Q01DX009 (ip), vehicle: saline); 2 of 6 (dose: 50.0 mg/kg/injection, schedule: Q04DX003 (ip), vehicle: saline); 1 of 6 (dose: 100.0 mg/kg/injection, schedule: Q04DX003 (ip), vehicle: saline); 1 of 6 under setting [7]; 2 of 6 under setting [8].

For `COC(=O)/C=C(\C(=O)OC)N1CCCCC1`, the survivor count is listed as 0 of 6 under setting [2] and 2 of 6 (dose: 400.0 mg/kg/injection, schedule: Q01DX009 (ip), vehicle: saline with Tween-80).

As for `CC(=O)Nc1cccc([As](=O)(c2cccc(NC(C)=O)c2)c2cccc(NC(C)=O)c2)c1`, the survivor count (dose: 83.0 mg/kg/injection, schedule: Q01DX Z (ip), vehicle: methylcellulose (MC)) is on record as 6 of 6.

Regarding `OCCN(CCO)c1nnc(-c2ccccc2)o1`, the survivor count (dose: 100.0 mg/kg/injection, schedule: Q01DX001 (ip), vehicle: saline) is 6 of 6.

On to `CC(C)OC(C(=O)O)c1ccccc1` (stereo not given), for which, under setting [5], the survivor count is given as 0 of 4.

As to `Nc1ccc2c(c1)sc1ccccc12`, the survivor count under setting [3] is given as 1 of 6.

As for `CCCCN1CC2CCCC1O2` (stereo not given), the survivor count is on record as 0 of 4 (dose: 200.0 mg/kg/injection, schedule: Q01DX001 (ip), vehicle: saline) and 0 of 4 under setting [4].

Turning to `CCCCC[N+](C)(C)CCOC(=O)C1C2CC3OC(=O)C1C3C2` (stereo not given), the survivor count runs as follows: under setting [7], 4 of 4; under setting [8], 0 of 4.

`CC1(C)N=C(N)N=C(N)N1c1cccc(CCCCOc2ccccc2)c1`: the survivor count by setting is: (dose: 100.0 mg/kg/injection, schedule: Q04DX003 (ip), vehicle: saline with Tween-80) 1 of 6; under setting [6], 0 of 6; under setting [3], 0 of 6.

Regarding `CC(C)(SCc1ccccc1)C(NC(=O)OCc1ccccc1)C(=O)O` (stereo not given), under “dose: 400.0 mg/kg/injection, schedule: Q04DX002 (ip), vehicle: DMSO”, the survivor count is 0 of 3.

`Nc1c(Br)cc(Br)cc1C(=O)O`: under “dose: 400.0 mg/kg/injection, schedule: Q01DX001 (ip), vehicle: other”, the survivor count is 4 of 4.

Take `BrP(Nc1cccc(NP(Br)(c2ccccc2)(c2ccccc2)c2ccccc2)c1)(c1ccccc1)(c1ccccc1)c1ccccc1`: the survivor count is listed as 6 of 6 under setting [1]; 0 of 6 (dose: 75.0 mg/kg/injection, schedule: Q01DX001 (ip), vehicle: saline); 0 of 6 (dose: 150.0 mg/kg/injection, schedule: Q01DX001 (ip), vehicle: saline); 0 of 6 (dose: 300.0 mg/kg/injection, schedule: Q01DX001 (ip), vehicle: saline).

For the compound `OCC1OC(n2cc(Cl)c3cncnc32)C(O)C1O` (stereo not given), under setting [9], the survivor count is listed as 3 of 6.

As to `O=C(N/N=C/C(CC(O)C(O)CO)=N/NC(=O)c1ccc(Cl)cc1)c1ccc(Cl)cc1` (stereo not given), the survivor count (dose: 400.0 mg/kg/injection, schedule: Q01DX009 (ip), vehicle: Klucel (hydroxypropylcellulose) (HPC)) is 3 of 6.

Take `COC(=O)C#CBr`: the survivor count (dose: 12.5 mg/kg/injection, schedule: Q01DX009 (ip), vehicle: other) is 0 of 6.

In the case of `N/C(=N\O)c1nn(C2OC(CO)C(O)C2O)c2ncnc(N)c12` (stereo not given), the T/C (dose: 12.5 mg/kg/injection, schedule: Q01DX005 (ip), vehicle: saline) is 143 % of control. In addition, the survivor count is, setting by setting: (dose: 50.0 mg/kg/injection, schedule: Q01DX005 (ip), vehicle: saline) 6 of 6; under setting [9], 5 of 6; (dose: 200.0 mg/kg/injection, schedule: Q01DX005 (ip), vehicle: saline) 0 of 6.

Turning to `CCN(CC)CCNc1ncnc2[nH]ncc12`, the survivor count under setting [7] is reported as 1 of 3 and the survivor count under setting [8] is given as 0 of 3.

Regarding `NC(N)=N/N=C(/c1ccccc1)c1ccc(O)cc1O`, the survivor count (dose: 480.0 mg/kg/injection, schedule: Q01DX Z (ip), vehicle: saline) is 0 of 6.

In the case of `CCCCN(CCCC)CCN(CCCC)CCN(CCCC)CCCC`, the survivor count reads like this: under setting [7], 4 of 6; under setting [8], 0 of 6.

On to `Cc1cccc(N2CCN(c3ccncc3N)CC2C)c1` (stereo not given), for which the survivor count (dose: 150.0 mg/kg/injection, schedule: Q04DX003 (ip), vehicle: saline with Tween-80) is listed as 0 of 6.

The values are drawn from PubChem BioAssay AID248 (DTP/NCI, 2004).
